Test results reported in PMC9273615, “Regulation of AUXIN RESPONSE FACTOR condensation and nucleo-cytoplasmic partitioning” (Nature Communications, 2022).
No constants are given. Whether binding was seen depends on the method and setting. Binding seen in cells or lysates may run through a third protein. Binding can be weak; no strength is given. Where a sequence is shown, tags or fusion partners need not be part of it. Each block holds one molecule with its values, some of them ahead of it.

Columns and labels:
[1] = target: T1, ARF7-HA (AUXIN RESPONSE FACTOR 7) (Arabidopsis thaliana) (UniProt P93022); experiment: co-IP; plant extract (1.0-2.0 mg protein) incubated with anti-GFP or anti-HA antibody, then Dynabeads Protein G and 2 μg GST, GST-AFF1 or GST-ΔF-box-AFF1 added for 2 hr at 4 °C; six washes; immunoblot with anti-GST; only the binder purified
T1 sequence: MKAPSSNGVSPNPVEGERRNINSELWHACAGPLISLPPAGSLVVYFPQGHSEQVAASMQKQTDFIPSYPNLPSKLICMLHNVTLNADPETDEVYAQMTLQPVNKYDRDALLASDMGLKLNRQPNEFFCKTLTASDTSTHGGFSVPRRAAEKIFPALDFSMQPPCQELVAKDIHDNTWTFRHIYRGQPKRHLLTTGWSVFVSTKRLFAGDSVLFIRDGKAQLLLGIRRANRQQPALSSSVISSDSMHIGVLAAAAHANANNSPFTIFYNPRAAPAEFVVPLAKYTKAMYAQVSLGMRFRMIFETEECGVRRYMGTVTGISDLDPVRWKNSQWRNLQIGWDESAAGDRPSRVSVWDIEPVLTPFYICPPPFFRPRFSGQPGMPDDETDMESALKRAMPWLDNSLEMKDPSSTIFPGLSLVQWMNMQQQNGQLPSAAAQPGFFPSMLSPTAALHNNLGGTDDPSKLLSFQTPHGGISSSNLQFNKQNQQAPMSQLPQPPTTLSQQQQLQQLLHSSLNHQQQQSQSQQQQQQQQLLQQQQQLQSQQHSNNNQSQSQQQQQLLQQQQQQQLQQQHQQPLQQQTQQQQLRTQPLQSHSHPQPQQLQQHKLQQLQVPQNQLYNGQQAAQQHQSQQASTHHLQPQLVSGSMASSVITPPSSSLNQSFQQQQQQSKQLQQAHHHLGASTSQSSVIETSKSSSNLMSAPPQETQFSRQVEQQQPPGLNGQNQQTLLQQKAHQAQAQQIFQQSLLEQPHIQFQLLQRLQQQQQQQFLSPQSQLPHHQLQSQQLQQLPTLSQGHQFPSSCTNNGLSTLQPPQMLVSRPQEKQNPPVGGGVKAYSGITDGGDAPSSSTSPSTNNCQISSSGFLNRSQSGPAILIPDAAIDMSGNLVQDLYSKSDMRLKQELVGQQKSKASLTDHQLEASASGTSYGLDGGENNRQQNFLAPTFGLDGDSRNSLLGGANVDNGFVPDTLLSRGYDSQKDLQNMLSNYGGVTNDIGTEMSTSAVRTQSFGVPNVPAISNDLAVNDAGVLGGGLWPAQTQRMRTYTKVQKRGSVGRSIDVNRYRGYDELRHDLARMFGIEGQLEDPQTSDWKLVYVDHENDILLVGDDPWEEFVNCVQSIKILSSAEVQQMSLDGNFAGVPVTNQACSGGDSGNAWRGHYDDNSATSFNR

[2] = target: T2, ARF19 as BiFC fusions (nEYFP-ARF19 and cEYFP-ARF19) (Arabidopsis thaliana) (UniProt Q8RYC8); experiment: split reporter; BiFC with nEYFP and cEYFP fusions co-infiltrated with the p19 strain into 3-week-old Nicotiana benthamiana leaves, 22 °C, 3 d; confocal microscopy; nuclear marker WPP-mCherry
T2 sequence: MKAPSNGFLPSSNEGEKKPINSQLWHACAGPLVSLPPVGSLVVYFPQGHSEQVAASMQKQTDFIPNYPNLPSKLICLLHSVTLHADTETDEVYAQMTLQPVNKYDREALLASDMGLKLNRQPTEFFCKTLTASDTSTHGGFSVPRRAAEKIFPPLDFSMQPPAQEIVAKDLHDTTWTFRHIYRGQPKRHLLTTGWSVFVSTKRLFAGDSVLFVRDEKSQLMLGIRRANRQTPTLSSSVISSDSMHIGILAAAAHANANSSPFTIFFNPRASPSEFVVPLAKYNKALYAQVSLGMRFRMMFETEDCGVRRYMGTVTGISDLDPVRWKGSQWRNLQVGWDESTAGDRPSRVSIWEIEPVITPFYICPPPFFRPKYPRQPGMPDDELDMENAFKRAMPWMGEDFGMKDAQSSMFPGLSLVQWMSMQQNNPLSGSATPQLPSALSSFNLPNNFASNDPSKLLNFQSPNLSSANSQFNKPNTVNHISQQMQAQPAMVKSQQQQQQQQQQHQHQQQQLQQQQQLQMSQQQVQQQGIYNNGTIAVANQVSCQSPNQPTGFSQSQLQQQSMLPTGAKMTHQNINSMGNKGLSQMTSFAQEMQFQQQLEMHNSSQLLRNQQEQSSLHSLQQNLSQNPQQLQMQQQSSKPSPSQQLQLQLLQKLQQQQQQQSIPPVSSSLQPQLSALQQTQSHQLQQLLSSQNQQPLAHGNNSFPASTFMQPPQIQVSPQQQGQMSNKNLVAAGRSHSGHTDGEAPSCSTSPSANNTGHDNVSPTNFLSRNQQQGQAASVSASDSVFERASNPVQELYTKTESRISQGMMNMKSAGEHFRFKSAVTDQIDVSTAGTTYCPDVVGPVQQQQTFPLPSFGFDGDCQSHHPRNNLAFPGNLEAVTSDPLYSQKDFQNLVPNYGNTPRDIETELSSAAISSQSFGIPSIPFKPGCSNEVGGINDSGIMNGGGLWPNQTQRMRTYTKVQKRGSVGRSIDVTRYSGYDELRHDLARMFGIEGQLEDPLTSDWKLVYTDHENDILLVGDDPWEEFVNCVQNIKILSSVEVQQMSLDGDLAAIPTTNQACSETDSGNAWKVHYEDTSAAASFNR

[3] = target: GST-ΔF-box-AFF1 (Arabidopsis thaliana); experiment: pull-down; 2 μg purified GST fusion immobilised on glutathione agarose, mixed with 1-2 mg total protein of arf19-1 35S:YFP-ARF19 plant lysate, 4 °C, 2 hr; six washes (PBS pH 7.4, 150 mM NaCl, 0.2% Triton X-100); immunoblot with anti-GFP and anti-GST; only the target purified

binding [1]: binds
Molecule: GST-ΔF-box-AFF1 (Arabidopsis thaliana) (domain or fragment)

binding [2]: binds
Molecule: nEYFP-ΔF-box-AFF1 (Arabidopsis thaliana) (domain or fragment)

binding [3]: binds
B1: YFP-ARF19 (AUXIN RESPONSE FACTOR 19) (protein, UniProt Q8RYC8 1-1086)
chain: MKAPSNGFLPSSNEGEKKPINSQLWHACAGPLVSLPPVGSLVVYFPQGHSEQVAASMQKQTDFIPNYPNLPSKLICLLHSVTLHADTETDEVYAQMTLQPVNKYDREALLASDMGLKLNRQPTEFFCKTLTASDTSTHGGFSVPRRAAEKIFPPLDFSMQPPAQEIVAKDLHDTTWTFRHIYRGQPKRHLLTTGWSVFVSTKRLFAGDSVLFVRDEKSQLMLGIRRANRQTPTLSSSVISSDSMHIGILAAAAHANANSSPFTIFFNPRASPSEFVVPLAKYNKALYAQVSLGMRFRMMFETEDCGVRRYMGTVTGISDLDPVRWKGSQWRNLQVGWDESTAGDRPSRVSIWEIEPVITPFYICPPPFFRPKYPRQPGMPDDELDMENAFKRAMPWMGEDFGMKDAQSSMFPGLSLVQWMSMQQNNPLSGSATPQLPSALSSFNLPNNFASNDPSKLLNFQSPNLSSANSQFNKPNTVNHISQQMQAQPAMVKSQQQQQQQQQQHQHQQQQLQQQQQLQMSQQQVQQQGIYNNGTIAVANQVSCQSPNQPTGFSQSQLQQQSMLPTGAKMTHQNINSMGNKGLSQMTSFAQEMQFQQQLEMHNSSQLLRNQQEQSSLHSLQQNLSQNPQQLQMQQQSSKPSPSQQLQLQLLQKLQQQQQQQSIPPVSSSLQPQLSALQQTQSHQLQQLLSSQNQQPLAHGNNSFPASTFMQPPQIQVSPQQQGQMSNKNLVAAGRSHSGHTDGEAPSCSTSPSANNTGHDNVSPTNFLSRNQQQGQAASVSASDSVFERASNPVQELYTKTESRISQGMMNMKSAGEHFRFKSAVTDQIDVSTAGTTYCPDVVGPVQQQQTFPLPSFGFDGDCQSHHPRNNLAFPGNLEAVTSDPLYSQKDFQNLVPNYGNTPRDIETELSSAAISSQSFGIPSIPFKPGCSNEVGGINDSGIMNGGGLWPNQTQRMRTYTKVQKRGSVGRSIDVTRYSGYDELRHDLARMFGIEGQLEDPLTSDWKLVYTDHENDILLVGDDPWEEFVNCVQNIKILSSVEVQQMSLDGDLAAIPTTNQACSETDSGNAWKVHYEDTSAAASFNR
